Assay results taken from PubChem BioAssay AID529 (NMMLSC, 2006).
Out of some 24,000 compounds screened, about 50 (0.2%) were called active. The inconclusive results got no clear call from the source; some entries with a clear call stand among them for comparison.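 The calls were made as follows: active = inhibition above 50%; inconclusive = compound itself fluorescent, judged against control cell fluorescence; inactive = the rest.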

Chains of the proteins cited; added tags and fusions are not shown.
UniProt P13612, whole entry, looked up: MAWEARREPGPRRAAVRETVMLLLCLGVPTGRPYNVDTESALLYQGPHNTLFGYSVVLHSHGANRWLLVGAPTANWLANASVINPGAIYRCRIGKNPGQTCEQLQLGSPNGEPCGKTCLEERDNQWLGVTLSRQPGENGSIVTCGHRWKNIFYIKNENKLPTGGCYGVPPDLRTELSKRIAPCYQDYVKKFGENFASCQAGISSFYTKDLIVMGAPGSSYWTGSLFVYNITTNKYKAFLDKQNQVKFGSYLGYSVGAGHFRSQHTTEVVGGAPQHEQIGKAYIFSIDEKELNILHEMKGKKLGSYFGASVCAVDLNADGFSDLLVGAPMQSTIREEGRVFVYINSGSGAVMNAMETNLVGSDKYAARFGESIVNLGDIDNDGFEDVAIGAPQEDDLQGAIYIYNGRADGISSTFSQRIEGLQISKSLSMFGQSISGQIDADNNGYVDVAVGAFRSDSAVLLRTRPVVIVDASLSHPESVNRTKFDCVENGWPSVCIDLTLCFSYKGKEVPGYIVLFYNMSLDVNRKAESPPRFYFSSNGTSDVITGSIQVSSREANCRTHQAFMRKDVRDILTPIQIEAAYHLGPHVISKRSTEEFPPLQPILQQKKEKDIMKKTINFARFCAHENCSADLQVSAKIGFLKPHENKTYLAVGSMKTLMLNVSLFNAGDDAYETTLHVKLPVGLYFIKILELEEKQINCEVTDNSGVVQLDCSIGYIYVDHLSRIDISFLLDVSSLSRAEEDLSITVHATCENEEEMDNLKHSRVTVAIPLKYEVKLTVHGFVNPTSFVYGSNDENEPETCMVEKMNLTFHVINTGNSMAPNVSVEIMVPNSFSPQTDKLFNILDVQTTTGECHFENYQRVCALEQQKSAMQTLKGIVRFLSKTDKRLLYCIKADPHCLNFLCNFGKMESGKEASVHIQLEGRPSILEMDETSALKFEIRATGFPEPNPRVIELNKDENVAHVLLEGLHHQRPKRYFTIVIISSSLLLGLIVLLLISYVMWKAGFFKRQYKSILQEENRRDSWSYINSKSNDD

What follows are molecules tested against Integrin alpha-4 (Homo sapiens) (UniProt P13612) (assay: blockers of LDV-FITC ligand binding on VLA-4 – Jurkat cells, Mn2+ activated, primary screen (AID 529;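 as to inhibition: 0% = Mn2+ stimulated cells lacking compound and 100% = ligand binding without Mn2+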)). Details: LDV-FITC binding with Mn2+, flow cytometry; active compounds read high, screened at 10 µM (by protocol), 100% = Mn2+-driven binding gain fully reversed unless noted.
In the case of CN1C(=O)CSc2ccc(NC(=O)N3CCC(N4CCCCC4)CC3)cc21, the inhibition is reported as “inconclusive”. For CCOC(=O)N1CCN(C(=O)c2oc3ccc(S(=O)(=O)N4CC(C)CC(C)C4)cc3c2C)CC1 (centres undefined), the inhibition was “inconclusive”. For CCc1ccccc1Nc1ccc(C(=O)O)cc1N, the inhibition was “inconclusive”. With COc1ccc(Nc2nc(N3CCCC3)c3ccccc3n2)cc1 the inhibition was inactive: 41.5%. In the case of CC1=C(C(=O)OC2CCCCC2)C(c2cccnc2)n2nnnc2N1 (centres undefined), the inhibition is reported as “inconclusive”. For CN1CCN(CCCNC(=O)c2cc3c(=O)oc4ccccc4c3s2)CC1, the inhibition was “inconclusive”. For CCOc1ccc(NC(=O)N2CC=C(n3c(=O)[nH]c4ccccc43)CC2)cc1, the inhibition was “inconclusive”. With Nc1sccc1C(=O)c1ccc(Cl)cc1 the inhibition was “inconclusive”. CCOC(=O)c1cnn(-c2sc(C(=O)OCC)c(C)c2C(=O)OCC)c1N was tested, and the inhibition was “inconclusive”. For CCn1c(CSc2ncccn2)nnc1SCC(=O)N1c2ccccc2CC1C (centres undefined), the inhibition was inactive: 5.5% [active compounds read high, 100% = Mn2+-driven binding gain fully reversed, screened at 10 µM (by protocol)]. With O=C(Cn1ncc2c(=O)oc3ccccc3c21)N1CCN(c2ccccn2)CC1 the inhibition was “inconclusive”. Cc1nc(S(=O)(=O)N2CCOCC2)c(C#N)c(C)c1Cl was tested, and the inhibition was “inconclusive”. In the case of CCOc1ccccc1NC(=O)CSc1ncnc2c1oc1ccccc12, the inhibition is reported as “inconclusive”. COCCNC(=O)CSc1nc2ccccc2c(=O)n1CC1CCCO1 (centres undefined) was tested, and the inhibition was “inconclusive”. With COC(=O)C1(C)NC(c2ccco2)C2C(=O)N(c3ccc(C)cc3)C(=O)C21 (centres undefined) the inhibition was inactive: 0.5%. COc1ccc(C(N)CCc2ccc(C)o2)cc1 (centres undefined) was tested, and the inhibition was “inconclusive”. With C=CCN(C(=O)CNS(=O)(=O)c1ccccc1)C(C(=O)NCCOC)c1ccncc1 (centres undefined) the inhibition was inactive: -3%. In the case of COc1ccc(C2C(C(=O)Nc3ccccc3OC)=C(C)Nc3ncnn32)cc1 (centres undefined), the inhibition is reported as “inconclusive”. Cc1cc(C)n(Cc2ccc(F)cc2)c(=O)c1C#N was tested, and the inhibition was inactive: 0%. For O=c1[nH]c(/C(=N\O)c2ccccc2)no1, the inhibition was inactive: -24%. CCOC(=O)c1c(N)nn(C(=O)C(C)C)c1-c1ccccc1 was tested, and the inhibition was “inconclusive”. O=C(O)C1CCN(Cc2cnn(-c3ccccc3)c2-n2cccc2)CC1 was tested, and the inhibition was “inconclusive”. COCCCN1C(=O)C(O)=C(C(=O)c2ccco2)C1c1ccc(Br)cc1 (centres undefined) was tested, and the inhibition was inactive: -10%. In the case of Cn1c(Cn2c(=O)sc3ccccc32)nnc1SCC(=O)Nc1ccc(F)cc1, the inhibition is reported as “inconclusive”. C/C(=N\O)c1ccc2c3ccccc3n(C)c2c1 was tested, and the inhibition was “inconclusive”. For Cc1ccc2cc(CN(Cc3ccc(F)cc3)Cc3nnnn3C3CCCC3)c(=O)[nH]c2c1, the inhibition was “inconclusive”. With Cc1cc(C)cc(NC(=O)CSc2nnc(Cn3c(=O)sc4ccccc43)n2C)c1 the inhibition was “inconclusive”. For CN(C)S(=O)(=O)N1CCN(c2cccc(Cl)c2)CC1, the inhibition was “inconclusive”. With O=C(NC1CC1)c1c[nH]c2ccc(S(=O)(=O)Nc3cccc(C(F)(F)F)c3)cc2c1=O the inhibition was “inconclusive”. With O=C(O)c1cc2nc(C3CC3)cc(C(F)(F)F)n2n1 the inhibition was inactive: -11%. In the case of O=C1SC(c2ccccc2)=C/C1=C\N1CCCCC1, the inhibition is reported as “inconclusive”. In the case of Cc1cccn2c(=O)c(C=Nc3ccccc3)c(NCc3ccco3)nc12, the inhibition is reported as “inconclusive”. For O=C(NCc1ccco1)C1CCN(C(=O)c2cc3sccc3n2Cc2ccc(Cl)cc2)CC1, the inhibition was “inconclusive”. In the case of COc1ccc(Cl)cc1S(=O)(=O)N1CCN(CC(=O)C(C)(C)C)CC1, the inhibition is reported as inactive: 14% [active compounds read high, 100% = Mn2+-driven binding gain fully reversed, screened at 10 µM (by protocol)]. With Cc1c(C(=O)Nc2ccc3c(c2)OCCO3)sc2nc(-c3ccccc3)cn12 the inhibition was “inconclusive”. With Fc1ccc2[nH]c3c(N4CCN(Cc5ccc6c(c5)OCO6)CC4)ncnc3c2c1 the inhibition was “inconclusive”. For COC(=O)c1cc(=O)[nH]c(SCc2cccc(C)c2)n1, the inhibition was “inconclusive”. With COc1ccc(CCNc2oc(COc3ccc(Br)cc3)nc2C#N)cc1OC the inhibition was “inconclusive”. In the case of Cc1ccc(CNC(=O)c2nnn(-c3cccc(C)c3)c2N)cc1, the inhibition is reported as “inconclusive”. For COCCNC(=O)CS(=O)Cc1nc(-c2ccc(OC)cc2)oc1C (centres undefined), the inhibition was “inconclusive”. O/N=C/c1ccc(OCC(O)COc2ccc(/C=N/O)cc2)cc1 was tested, and the inhibition was inactive: -14%. For COc1cccc2[nH]c3c(N4CCCC(C)C4)ncnc3c12 (centres undefined), the inhibition was “inconclusive”. For CN(CC(=O)Nc1ccc(Cl)cc1)S(=O)(=O)c1cccc2cccnc12, the inhibition was “inconclusive”. For Cc1ccc(-c2nc(CS(=O)CC(=O)NCc3ccccc3)c(C)o2)cc1 (centres undefined), the inhibition was “inconclusive”. For COc1ccc(C(=O)Nc2ccc(S(=O)(=O)Nc3onc(C)c3C)cc2)cc1, the inhibition was “inconclusive”. For COC(=O)c1cc2sc(Cl)cc2n1CC(=O)Nc1cccc(SC)c1, the inhibition was “inconclusive”. With CCn1cc(C(=O)NCCCN(C)c2ccccc2)c(=O)c2cc(S(=O)(=O)N(C)C)ccc21 the inhibition was “inconclusive”. Cc1noc(/C=C/c2ccco2)c1S(=O)(=O)N1CCC(C(=O)N(C)Cc2ccccc2)CC1 was tested, and the inhibition was inactive: 24%. In the case of CCN(CC)c1nc2cc(OC)ccc2cc1C#N, the inhibition is reported as “inconclusive”. For Cc1cc(C)cc(-n2cc3c(=O)n(C)c(=O)n(C)c3c2)c1, the inhibition was inactive: -13%. In the case of COc1ccccc1CNC(=O)c1ccc(NS(=O)(=O)c2c(C)noc2C)cc1, the inhibition is reported as inactive: -7%. With O=c1cc(O)nc(SCc2ccc(Cl)cc2)[nH]1 the inhibition was “inconclusive”. CCn1c(C)csc1=NC(=O)c1ccccc1O was tested, and the inhibition was “inconclusive”. In the case of COC(=O)C1C(=O)C2=C(CC1C)NC(C)=C(C(=O)OCCOc1ccccc1)C2c1ccc(C)o1 (centres undefined), the inhibition is reported as inactive: 10%. With CCOC(=O)N1CCN(C(=O)CS(=O)Cc2nc(-c3cccc(C)c3)oc2C)CC1 (centres undefined) the inhibition was “inconclusive”. For Cc1cccc(N2CCN(C(=O)Cn3sc4nc(C)cc(C)c4c3=O)CC2C)c1 (centres undefined), the inhibition was “inconclusive”. For CCOC(=O)c1[nH]c(C)c(C(=O)NCc2cccnc2)c1C, the inhibition was “inconclusive”. In the case of CCn1cc(C(=O)NCCCOC)c(=O)c2cc(S(=O)(=O)N(C)C)ccc21, the inhibition is reported as inactive: -11%. For CN1C(=O)NC(c2cccc(O)c2)C(C(=O)c2cccs2)C1(O)C(F)(F)F (centres undefined), the inhibition was “inconclusive”.
